Measured values published in the supplement of paper PMC10331698.
± gives the standard deviation of the averaged measurements. Most entries show no effect beyond the scatter of the controls.

Assays:
Test in all cases: level (log10 ratio to DMSO vehicle control); higher = higher biomarker level / cell amount than vehicle control
[1] = compound: C=C(C)C(=O)OCCC(F)(F)C(F)(F)C(F)(F)C(F)(F)C(F)(C(F)(F)F)C(F)(F)F [(Perfluoro-5-methylhexyl)ethyl 2-methylprop-2-enoate]; conditions: in DMSO
Protocol: (§1)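 BioMAP Diversity Plus panel of 12 human primary cell co-culture systems (3C, 4H, LPS, SAg, BT, BF4T, BE3C, CASM3C, HDF3CGF, KF3CT, MyoF, Mphg). Compounds were added 1 h before stimulation and left for 24 h (MyoF 48 h; BT 72 h for soluble read-outs or 6 d for IgG). Biomarkers were read by ELISA, cytotoxicity by SRB, PBMC viability and proliferation by Alamar Blue. Each well value was divided by the mean of 8 DMSO control wells on the same plate and log10 transformed; duplicate blinded samples were tested at 4 concentrations.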

[2] = compound: C=C(C)C(=O)OCCC(F)(F)C(F)(F)C(F)(F)C(F)(F)C(F)(F)C(F)(F)C(F)(F)C(F)(F)F [8:2 Fluorotelomer methacrylate]; conditions: in DMSO
Protocol: as §1

[3] = compound: COC(=O)CCC(F)(F)C(F)(F)C(F)(F)C(F)(F)F [Methyl 2H,2H,3H,3H-perfluoroheptanoate]; conditions: 2200 nM; in DMSO
Protocol: as §1

[4] = compound: FC(F)(F)C(F)(F)C(F)(F)C(F)(F)C(F)(F)CCI [1-Iodo-1H,1H,2H,2H-perfluoroheptane]; conditions: 2200 nM; in DMSO
Protocol: as §1

Octafluoroadipamide = compound: NC(=O)C(F)(F)C(F)(F)C(F)(F)C(F)(F)C(N)=O [Octafluoroadipamide]; conditions: 2200 nM; in DMSO
Protocol: as §1

Nonafluoropentanamide = compound: NC(=O)C(F)(F)C(F)(F)C(F)(F)C(F)(F)F [Nonafluoropentanamide]; conditions: 2200 nM; in DMSO
Protocol: as §1

[5] = compound: NS(=O)(=O)C(F)(F)C(F)(F)C(F)(F)C(F)(F)C(F)(F)C(F)(F)F [Perfluorohexanesulfonamide]; conditions: 2200 nM; in DMSO
Protocol: as §1

Tetrafluorosuccinic acid = compound: O=C(O)C(F)(F)C(F)(F)C(=O)O [Tetrafluorosuccinic acid]; conditions: 2200 nM; in DMSO
Protocol: as §1

[6] = compound: O=C(O)C(F)(F)C(F)(F)C(F)(F)C(F)(F)C(F)(F)C(F)(F)C(F)(F)C(F)(F)Cl [9-Chloro-perfluorononanoic acid]; conditions: in DMSO
Protocol: as §1

[7] = compound: O=C(O)CCC(F)(F)C(F)(F)C(F)(F)C(F)(F)C(F)(F)F [2H,2H,3H,3H-Perfluorooctanoic acid]; conditions: 2200 nM; in DMSO
Protocol: as §1

[8] = compound: O=S(=O)(O)C(F)(F)C(F)(F)OC(F)(F)C(F)(F)F [Perfluoro(2-ethoxyethane)sulfonic acid]; conditions: 2200 nM; in DMSO
Protocol: as §1

[9] = compound: O=S(=O)(O)CCC(F)(F)C(F)(F)C(F)(F)C(F)(F)C(F)(F)C(F)(F)F [6:2 Fluorotelomer sulfonic acid]; conditions: in DMSO
Protocol: as §1

Perfluoropinacol = compound: OC(C(F)(F)F)(C(F)(F)F)C(O)(C(F)(F)F)C(F)(F)F [Perfluoropinacol]; conditions: in DMSO
Protocol: as §1

[10] = compound: OCCC(F)(F)C(F)(F)C(F)(F)C(F)(F)F [4:2 Fluorotelomer alcohol]; conditions: 2200 nM; in DMSO
Protocol: as §1

| Test System | level (log10) ([1]; 740 nM) | level (log10) ([1]; 2200 nM) | level (log10) ([1]; 6700 nM) | level (log10) ([1]; 20000 nM) | level (log10) ([2]; 740 nM) | level (log10) ([2]; 2200 nM) | level (log10) [3] | level (log10) [4] | level (log10) (Octafluoroadipamide) | level (log10) (Nonafluoropentanamide) | level (log10) [5] | level (log10) (Tetrafluorosuccinic acid) | level (log10) ([6]; 2200 nM) | level (log10) ([6]; 6700 nM) | level (log10) ([6]; 20000 nM) | level (log10) [7] | level (log10) [8] | level (log10) ([9]; 2200 nM) | level (log10) ([9]; 6700 nM) | level (log10) ([9]; 20000 nM) | level (log10) ([9]; 60000 nM) | level (log10) (Perfluoropinacol; 2200 nM) | level (log10) (Perfluoropinacol; 6700 nM) | level (log10) (Perfluoropinacol; 20000 nM) | level (log10) [10] |
| --- | --- | --- | --- | --- | --- | --- | --- | --- | --- | --- | --- | --- | --- | --- | --- | --- | --- | --- | --- | --- | --- | --- | --- | --- | --- |
| SAg:CD69 | -0.0165 ± 0.018 | -0.0195 ± 0.023 | -0.0095 ± 0.015 | -0.0335 ± 0.033 | -0.009 ± 0.02 | -0.0295 ± 0.00071 | -0.026 ± 0.069 | -0.0045 ± 0.019 | -0.0065 ± 0.022 | -0.0155 ± 0.00071 | -0.015 ± 0.016 | 0.0055 ± 0.086 | -0.0285 ± 0.018 | -0.0405 ± 0.043 | -0.035 ± 0.028 | -0.0185 ± 0.047 | 0.0055 ± 0.005 | -0.0205 ± 0.046 | -0.0245 ± 0.059 | -0.04 ± 0.024 | -0.04 ± 0.0057 | -0.015 ± 0.0085 | -0.039 ± 0.017 | -0.19 ± 0.033 | -0.0165 ± 0.0035 |
| LPS:CD62E/E-Selectin | 0.044 ± 0.013 | 0.0125 ± 0.035 | 0.006 ± 0.0099 | 0.0095 ± 0.012 | 0.0055 ± 0.0064 | 0.0125 ± 0.00071 | -0.0245 ± 0.0092 | -0.0045 ± 0.00071 | 0.001 ± 0.023 | 0.0065 ± 0.0064 | -0.0055 ± 0.016 | 0.011 ± 0.051 | 0.017 ± 0.05 | -0.0095 ± 0.033 | 0.034 ± 0.0057 | 0.016 ± 0.042 | 0.011 ± 0.067 | 0.057 ± 0.0099 | 0.034 ± 0.021 | 0.007 ± 0.014 | 0.027 ± 0.023 | -0.008 ± 0.016 | 0.003 ± 0.0085 | -0.027 ± 0.028 | 0 ± 0.013 |
| LPS:IL-1alpha | -0.0125 ± 0.00071 | -0.111 ± 0.0099 | -0.0515 ± 0.096 | -0.0355 ± 0.023 | 0.024 ± 0.027 | 0.0785 ± 0.039 | 0.0355 ± 0.073 | 0.0195 ± 0.036 | -0.034 ± 0.02 | -0.078 ± 0.0014 | 0.0035 ± 0.05 | 0.0055 ± 0.019 | 0.0375 ± 0.04 | 0.038 ± 0.017 | 0.025 ± 0.021 | 0.0205 ± 0.023 | 0.0245 ± 0.012 | 0.039 ± 0.0028 | 0.007 ± 0.011 | 0.0225 ± 0.023 | 0.037 ± 0.05 | 0.0205 ± 0.042 | 0.0305 ± 0.011 | 0.041 ± 0.0014 | -0.003 ± 0.0071 |
| SAg:CCL2/MCP-1 | 0.012 ± 0.027 | -0.005 ± 0.014 | -0.014 ± 0.018 | 0.0065 ± 0.033 | 0.0125 ± 0.049 | -0.0045 ± 0.028 | 0.006 ± 0.021 | 0.0025 ± 0.046 | 0.025 ± 0.035 | 0.012 ± 0.014 | -0.0045 ± 0.028 | 0.003 ± 0.044 | -0.005 ± 0.027 | 0.017 ± 0.021 | -0.0055 ± 0.005 | -0.003 ± 0.0099 | 0.018 ± 0.0014 | -0.004 ± 0.0099 | -0.019 ± 0.0085 | -0.015 ± 0.0042 | 0.0035 ± 0.019 | 0.033 ± 0.0028 | 0.078 ± 0.018 | -0.096 ± 0.0085 | -0.0065 ± 0.043 |
| BF4T:PAI-I | -0.0105 ± 0.023 | -0.018 ± 0.0014 | -0.01 ± 0.018 | -0.023 ± 0.0057 | 0.0085 ± 0.013 | -0.007 ± 0.0085 | 0.0185 ± 0.026 | 0.0055 ± 0.023 | -0.0005 ± 0.013 | 0.0025 ± 0.018 | 0.003 ± 0.016 | -0.004 ± 0.011 | -0.033 ± 0.023 | -0.027 ± 0.0042 | -0.052 ± 0.0028 | -0.004 ± 0.023 | 0.0205 ± 0.022 | 0.0015 ± 0.025 | 0.0075 ± 0.005 | -0.0235 ± 0.012 | -0.0265 ± 0.0078 | -0.0035 ± 0.011 | -0.0315 ± 0.0035 | -0.0845 ± 0.0064 | -0.003 ± 0.035 |
| BE3C:CXCL9/MIG | 0.0145 ± 0.0035 | 0.016 | 0.009 ± 0.013 | 0.008 ± 0.0071 | -0.0005 ± 0.026 | -0.0155 ± 0.026 | 0.0025 ± 0.0035 | -0.0005 ± 0.0021 | -0.0005 ± 0.011 | 0.008 ± 0.013 | 0.005 ± 0.0014 | -0.012 ± 0.0042 | -0.006 ± 0.013 | -0.0015 ± 0.00071 | -0.047 | -0.001 ± 0.0014 | -0.011 ± 0.0042 | -0.004 ± 0.0014 | -0.005 ± 0.0014 | -0.004 ± 0.0042 | 0.0015 ± 0.011 | 0 ± 0.0099 | -0.0045 ± 0.015 | 0.002 ± 0.0071 | 0.001 ± 0.0028 |
| BT:B cell Proliferation | -0.006 ± 0.017 | 0.004 ± 0.0028 | -0.027 ± 0.011 | 0.001 ± 0.017 | -0.02 ± 0.031 | 0.002 ± 0.013 | 0.015 ± 0.03 | 0.0155 ± 0.032 | 0.0095 ± 0.021 | -0.012 ± 0.0085 | -0.009 ± 0.035 | 0.0335 ± 0.025 | 0.014 ± 0.024 | 0.04 ± 0.038 | 0.037 ± 0.017 | 0.042 ± 0.058 | 0.0545 ± 0.052 | 0.025 ± 0.033 | 0.0405 ± 0.066 | 0.031 ± 0.017 | 0.0625 ± 0.098 | -0.0025 ± 0.0078 | -0.0065 ± 0.0064 | -0.085 ± 0.034 | 0.0115 ± 0.018 |
| HDF3CGF:SRB | 0.002 ± 0.0099 | 0.0255 ± 0.0021 | 0.0055 ± 0.0092 | 0.008 ± 0.0028 | -0.014 ± 0.054 | -0.001 ± 0.041 | 0.012 ± 0.073 | 0.0075 ± 0.023 | -0.0275 ± 0.00071 | -0.004 ± 0.028 | -0.024 ± 0.0057 | -0.018 ± 0.0071 | 0.047 ± 0.023 | 0.081 ± 0.016 | 0.065 ± 0.033 | -0.009 ± 0.025 | -0.039 ± 0.038 | 0.0065 ± 0.0021 | 0.0055 ± 0.044 | 0.0255 ± 0.056 | 0.023 ± 0.085 | -0.0065 ± 0.012 | -0.027 ± 0.0042 | -0.0055 ± 0.039 | -0.008 ± 0.027 |
| BT:sIL-6 | -0.0195 ± 0.04 | -0.01 ± 0.041 | -0.0095 ± 0.025 | 0.0305 ± 0.073 | 0.001 ± 0.028 | 0.256 ± 0.32 | 0.0395 ± 0.022 | -0.003 ± 0.042 | 0.051 ± 0.051 | 0.025 ± 0.038 | 0.0055 ± 0.025 | -0.038 ± 0.0071 | -0.0445 ± 0.063 | 0.0155 ± 0.022 | 0.0135 ± 0.018 | 0.0455 ± 0.023 | 0.064 ± 0.072 | 0.0565 ± 0.0078 | 0.0255 ± 0.039 | 0.0375 ± 0.016 | 0.003 ± 0.052 | -0.009 ± 0.0028 | -0.073 ± 0.051 | -0.0655 ± 0.019 | -0.001 ± 0.045 |
| 3C:CD54/ICAM-1 | 0.002 ± 0.0042 | -0.0125 ± 0.013 | -0.009 ± 0.0014 | -0.01 ± 0.0071 | -0.0085 ± 0.0021 | 0.001 ± 0.0028 | 0.0095 ± 0.005 | 0.022 ± 0.025 | -0.0005 ± 0.0035 | 0.0025 ± 0.0064 | 0.0175 ± 0.019 | -0.008 ± 0.0099 | 0.001 ± 0.025 | -0.0075 ± 0.0092 | -0.0085 ± 0.019 | -0.004 ± 0.0057 | -0.006 ± 0.011 | -0.0025 ± 0.015 | -0.012 ± 0.021 | -0.006 ± 0.021 | -0.004 ± 0.011 | 0.0045 ± 0.011 | 0.0055 ± 0.0021 | -0.0005 ± 0.021 | -0.0015 ± 0.029 |

Record cards, from the list above. Values in the order: level (log10) ([1]; 740 nM) | level (log10) ([1]; 2200 nM) | level (log10) ([1]; 6700 nM) | level (log10) ([1]; 20000 nM) | level (log10) ([2]; 740 nM) | level (log10) ([2]; 2200 nM) | level (log10) [3] | level (log10) [4] | level (log10) (Octafluoroadipamide) | level (log10) (Nonafluoropentanamide) | level (log10) [5] | level (log10) (Tetrafluorosuccinic acid) | level (log10) ([6]; 2200 nM) | level (log10) ([6]; 6700 nM) | level (log10) ([6]; 20000 nM) | level (log10) [7] | level (log10) [8] | level (log10) ([9]; 2200 nM) | level (log10) ([9]; 6700 nM) | level (log10) ([9]; 20000 nM) | level (log10) ([9]; 60000 nM) | level (log10) (Perfluoropinacol; 2200 nM) | level (log10) (Perfluoropinacol; 6700 nM) | level (log10) (Perfluoropinacol; 20000 nM) | level (log10) [10]
BT:sIL-6 is listed as -0.0195 ± 0.04 | -0.01 ± 0.041 | -0.0095 ± 0.025 | 0.0305 ± 0.073 | 0.001 ± 0.028 | 0.256 ± 0.32 | 0.0395 ± 0.022 | -0.003 ± 0.042 | 0.051 ± 0.051 | 0.025 ± 0.038 | 0.0055 ± 0.025 | -0.038 ± 0.0071 | -0.0445 ± 0.063 | 0.0155 ± 0.022 | 0.0135 ± 0.018 | 0.0455 ± 0.023 | 0.064 ± 0.072 | 0.0565 ± 0.0078 | 0.0255 ± 0.039 | 0.0375 ± 0.016 | 0.003 ± 0.052 | -0.009 ± 0.0028 | -0.073 ± 0.051 | -0.0655 ± 0.019 | -0.001 ± 0.045
LPS:CD62E/E-Selectin is listed as 0.044 ± 0.013 | 0.0125 ± 0.035 | 0.006 ± 0.0099 | 0.0095 ± 0.012 | 0.0055 ± 0.0064 | 0.0125 ± 0.00071 | -0.0245 ± 0.0092 | -0.0045 ± 0.00071 | 0.001 ± 0.023 | 0.0065 ± 0.0064 | -0.0055 ± 0.016 | 0.011 ± 0.051 | 0.017 ± 0.05 | -0.0095 ± 0.033 | 0.034 ± 0.0057 | 0.016 ± 0.042 | 0.011 ± 0.067 | 0.057 ± 0.0099 | 0.034 ± 0.021 | 0.007 ± 0.014 | 0.027 ± 0.023 | -0.008 ± 0.016 | 0.003 ± 0.0085 | -0.027 ± 0.028 | 0 ± 0.013
